According to PMC13496012:
Results are given in words; binding and its absence hold for the method and conditions named. In cells and extracts the contact can be indirect. Some results given as binding are weak or reduced against the parent protein; the word gives no strength.

Chains of the proteins cited; added tags and fusions are not shown.
UniProt P05556: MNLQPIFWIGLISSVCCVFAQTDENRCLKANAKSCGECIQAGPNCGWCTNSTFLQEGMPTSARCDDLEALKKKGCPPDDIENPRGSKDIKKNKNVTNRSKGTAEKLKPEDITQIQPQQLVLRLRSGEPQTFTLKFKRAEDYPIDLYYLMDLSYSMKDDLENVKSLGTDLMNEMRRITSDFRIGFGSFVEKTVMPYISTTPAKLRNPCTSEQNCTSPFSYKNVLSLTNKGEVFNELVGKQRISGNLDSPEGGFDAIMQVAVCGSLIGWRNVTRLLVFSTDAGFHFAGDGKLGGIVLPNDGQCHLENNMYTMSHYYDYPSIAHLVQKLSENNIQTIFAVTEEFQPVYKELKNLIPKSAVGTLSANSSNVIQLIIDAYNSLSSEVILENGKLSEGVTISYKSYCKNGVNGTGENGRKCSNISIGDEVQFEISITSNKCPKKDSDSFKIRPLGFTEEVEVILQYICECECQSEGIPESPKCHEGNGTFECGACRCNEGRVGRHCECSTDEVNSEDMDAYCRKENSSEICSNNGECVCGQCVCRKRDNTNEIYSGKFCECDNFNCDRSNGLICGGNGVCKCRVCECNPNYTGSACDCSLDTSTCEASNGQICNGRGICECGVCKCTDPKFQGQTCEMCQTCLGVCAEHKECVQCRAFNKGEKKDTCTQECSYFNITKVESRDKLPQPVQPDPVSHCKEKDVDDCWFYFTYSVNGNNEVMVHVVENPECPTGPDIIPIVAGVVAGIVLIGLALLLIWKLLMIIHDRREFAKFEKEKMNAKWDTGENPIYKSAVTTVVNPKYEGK
UniProt P16671: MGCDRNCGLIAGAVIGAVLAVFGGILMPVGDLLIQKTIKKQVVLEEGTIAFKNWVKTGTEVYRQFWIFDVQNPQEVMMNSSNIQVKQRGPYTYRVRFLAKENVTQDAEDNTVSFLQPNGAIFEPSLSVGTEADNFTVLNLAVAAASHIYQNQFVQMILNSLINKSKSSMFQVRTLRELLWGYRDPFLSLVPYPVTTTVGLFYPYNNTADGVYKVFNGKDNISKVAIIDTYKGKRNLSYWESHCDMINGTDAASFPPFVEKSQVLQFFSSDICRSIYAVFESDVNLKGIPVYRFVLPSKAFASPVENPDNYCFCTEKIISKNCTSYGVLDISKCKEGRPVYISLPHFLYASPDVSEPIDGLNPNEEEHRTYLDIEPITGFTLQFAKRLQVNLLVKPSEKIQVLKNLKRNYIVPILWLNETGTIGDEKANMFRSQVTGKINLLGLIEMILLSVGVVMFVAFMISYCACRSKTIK

Columns and labels:
[1] = target: β1-integrin subunit (human (endogenous in TIME cells)) (UniProt P05556); assay: proximity ligation; cell surface PLA (Duolink) in fixed TIME cells transfected with Halo-CD36; anti-β1-integrin K20 applied before permeabilization, anti-HaloTag after; TIRFM; read-out ratio of PLA detection density in CD36-expressing to non-expressing cells
[2] = target: β1-integrin subunit (human (endogenous in TIME cells)) (UniProt P05556); assay: proximity ligation; whole cell PLA (Duolink) in fixed, permeabilized TIME cells transfected with Halo-CD36; rabbit anti-HaloTag with mouse anti-β1-integrin K20 (total) or 12G10 (active); mitofilin antibody as negative control; spinning disk confocal; read-out percent of cell area occupied by PLA puncta

binding [1]: binds | binding [2]: binds
Substance: HaloTag-fused WT CD36 (Halo-CD36^WT) (from UniProt P16671 1-472) (receptor)
